## Results from one PubChem assay

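Vaccinia-infected cells with a two-color viral stage reporter; Venus fluorescence read on a plate reader; the cell line is not named here; timing not stated here. The test concentration is not given here. Percent change in Venus reporter signal; lower (more negative) values mean stronger inhibition of that viral stage.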

Values are in %. How 0% and 100% were set is not given here. Common to all entries: measured here: Venus reporter, other viral stage. Part of the compounds only, not a random draw; the main read-out is not listed here.

{"smiles": "N#Cc1ccc(-c2ccc3c(c2)[C@@H]2[C@@H](CCN2C(=O)C2CCCCC2)[C@H](CO)N3)cc1", "activity change (Venus) (%)": "-46.52"}
{"smiles": "Cc1ccc(S(=O)(=O)N(C)C[C@@H]2OCCCC[C@@H](C)Oc3ccc(NS(=O)(=O)c4cccs4)cc3C(=O)N([C@@H](C)CO)C[C@H]2C)cc1", "activity change (Venus) (%)": "-43.32"}
{"smiles": "O=C(Nc1cccc(F)c1)N1CC(=O)N2[C@H](CO)[C@@H](c3ccc(-c4ccccc4)cc3)[C@H]2C1", "activity change (Venus) (%)": "-32.94"}
{"smiles": "COc1ccc(NC(=O)Nc2ccc3c(c2)C(=O)N([C@@H](C)CO)C[C@H](C)[C@@H](CN(C)Cc2ccc(C(F)(F)F)cc2)OCCCC[C@@H](C)O3)cc1", "activity change (Venus) (%)": "-41.03"}
{"smiles": "COc1cccc(S(=O)(=O)N(C)C[C@H]2Oc3cc(Br)ccc3S(=O)(=O)N([C@@H](C)CO)C[C@H]2C)c1", "activity change (Venus) (%)": "-52.73"}
{"smiles": "C[C@H](CO)N1C[C@H](C)[C@H](CN(C)S(=O)(=O)c2ccc(Cl)cc2)Oc2c(NS(=O)(=O)c3ccc(Cl)cc3)cccc2C1=O", "activity change (Venus) (%)": "-23.57"}
{"smiles": "C[C@@H]1CCCCO[C@H](CN(C)Cc2ccc(Cl)c(Cl)c2)[C@@H](C)CN([C@H](C)CO)C(=O)c2cc(NS(=O)(=O)c3ccccc3)ccc2O1", "activity change (Venus) (%)": "-50.42"}
{"smiles": "C[C@@H]1CCCCO[C@H](CN(C)C(=O)C2CCCCC2)[C@@H](C)CN([C@@H](C)CO)C(=O)c2cc(NC(=O)Cc3ccccc3)ccc2O1", "activity change (Venus) (%)": "-40.74"}
{"smiles": "COc1ccc(S(=O)(=O)Nc2ccc3c(c2)C(=O)N([C@@H](C)CO)C[C@@H](C)[C@H](CN(C)S(=O)(=O)c2ccc(C)cc2)OCCCC[C@@H](C)O3)cc1", "activity change (Venus) (%)": "-42.04"}
{"smiles": "Cc1cccc(-c2ccc([C@H]3[C@@H](CO)N4CCCCN(S(=O)(=O)c5ccccc5C)C[C@H]34)cc2)c1", "activity change (Venus) (%)": "-19.62"}
{"smiles": "Cc1ccc(S[C@]2(C(=O)NC(C)C)CC(=O)N(C3CCCCC3)[C@@H]2c2ccc(CO)cc2I)cc1", "activity change (Venus) (%)": "-45.09"}
{"smiles": "C[C@H](CO)N1C[C@H](C)[C@H](CN(C)C(=O)Cc2ccncc2)Oc2cc(C#CC3CCCC3)ccc2S1(=O)=O", "activity change (Venus) (%)": "-32.36"}
{"smiles": "C[C@@H]1CN([C@H](C)CO)C(=O)c2cc(-c3cccnc3)cnc2O[C@@H]1CN(C)Cc1ccc(-c2ccccc2)cc1", "activity change (Venus) (%)": "-35.02"}
{"smiles": "C[C@@H]1CN([C@@H](C)CO)S(=O)(=O)c2ccc(C#C[C@@H](C)O)cc2O[C@H]1CN(C)Cc1ccc(-c2ccccc2)cc1", "activity change (Venus) (%)": "-47.49"}
{"smiles": "COc1ccc(CN(C)C[C@H]2OCCCC[C@H](C)Oc3ccc(NC(=O)c4ccccc4)cc3C(=O)N([C@@H](C)CO)C[C@H]2C)cc1", "activity change (Venus) (%)": "-30.67"}
{"smiles": "C[C@@H]1CN([C@@H](C)CO)C(=O)c2ccccc2-c2ccccc2CO[C@@H]1CN(C)Cc1cccc(C(F)(F)F)c1", "activity change (Venus) (%)": "-59.54"}
{"smiles": "C[C@@H]1CN([C@H](C)CO)S(=O)(=O)c2ccc(C3=CCCCC3)cc2O[C@@H]1CN(C)S(=O)(=O)c1ccc(F)cc1", "activity change (Venus) (%)": "-39.28"}
{"smiles": "CCCC#Cc1ccc([C@H]2[C@@H](C#N)N(S(=O)(=O)c3cccc(F)c3)[C@@H]2CO)cc1", "activity change (Venus) (%)": "-32.24"}
{"smiles": "CC(C)C#Cc1ccc([C@H]2[C@H](CO)N3CCCCN(C(=O)Nc4ccccc4)C[C@@H]23)cc1", "activity change (Venus) (%)": "-49.66"}
{"smiles": "CC(C)CC#Cc1cnc2c(c1)C(=O)N([C@H](C)CO)C[C@@H](C)[C@H](CN(C)Cc1ccccc1)O2", "activity change (Venus) (%)": "-34.75"}
{"smiles": "Cc1ccc(-c2ccc([C@@H]3[C@H](CO)N4CCCCN(S(=O)(=O)c5cccc(C)c5)C[C@@H]34)cc2)cc1", "activity change (Venus) (%)": "-27.27"}
{"smiles": "O=C(C[C@H]1CC[C@@H]2[C@H](COC[C@H](O)CN2S(=O)(=O)c2ccc(F)cc2)O1)NCc1ccc(Cl)c(Cl)c1", "activity change (Venus) (%)": "-34.77"}
{"smiles": "COc1ccc(-c2ccc([C@@H]3[C@H](CO)N4CCCCN(C(=O)c5ccc6c(c5)OCO6)C[C@@H]34)cc2)cc1", "activity change (Venus) (%)": "-61.28"}
{"smiles": "O=C(C[C@H]1CC[C@@H](NC(=O)Nc2ccccc2F)[C@@H](CO)O1)NCc1ccc(-c2ccccc2)cc1", "activity change (Venus) (%)": "-28.44"}
{"smiles": "C[C@@H]1CN([C@@H](C)CO)C(=O)c2c(c3ccccc3n2C)-c2ccccc2CO[C@@H]1CN(C)C(=O)Nc1cccc(Cl)c1Cl", "activity change (Venus) (%)": "-48.33"}
{"smiles": "CN1C(=O)c2cc(NC(=O)c3ccc(C(F)(F)F)cc3)ccc2OC[C@@H]2O[C@H](CC(=O)NCc3ccc4c(c3)OCO4)CC[C@@H]21", "activity change (Venus) (%)": "-34.6"}
{"smiles": "C[C@H](CO)N1C[C@H](C)[C@H](CN(C)Cc2ccc(Oc3ccccc3)cc2)Oc2ccc(NS(=O)(=O)c3ccccc3)cc2C1=O", "activity change (Venus) (%)": "-36.53"}
{"smiles": "C[C@H](CO)N1C[C@H](C)[C@@H](CN(C)Cc2ccc(-c3ccccc3)cc2)Oc2c(cccc2N(C)C)C1=O", "activity change (Venus) (%)": "-26.82"}
{"smiles": "C[C@@H]1CN([C@@H](C)CO)S(=O)(=O)c2ccc(Br)cc2O[C@H]1CN(C)Cc1ccccc1F", "activity change (Venus) (%)": "-56.52"}
{"smiles": "COc1ccc(NC(=O)Nc2ccc3c(c2)C(=O)N([C@@H](C)CO)C[C@H](C)[C@H](CN(C)Cc2ccc(C(F)(F)F)cc2)O3)cc1", "activity change (Venus) (%)": "-23.73"}
{"smiles": "C[C@H](CO)N1C[C@H](C)[C@H](CN(C)C(=O)c2ccccn2)Oc2cc(C#CCC3CCCC3)ccc2S1(=O)=O", "activity change (Venus) (%)": "-28.42"}
{"smiles": "O=C(Nc1cccc(F)c1)N1CC(=O)N2[C@H](C1)[C@@H](c1ccc(Br)cc1)[C@@H]2CO", "activity change (Venus) (%)": "-54.16"}
{"smiles": "C[C@H]1CN([C@@H](C)CO)C(=O)c2ccccc2-c2ccccc2CO[C@@H]1CN(C)C(=O)Nc1ccc(-c2ccccc2)cc1", "activity change (Venus) (%)": "-34.67"}
{"smiles": "C[C@@H]1CN([C@@H](C)CO)C(=O)Cc2cc(NC(=O)Nc3ccc(F)cc3)ccc2O[C@@H]1CN(C)Cc1ccc(C(F)(F)F)cc1", "activity change (Venus) (%)": "-33.39"}

Repeated from the top, 3 entries:

- N#Cc1ccc(-c2ccc3c(c2)[C@@H]2[C@@H](CCN2C(=O)C2CCCCC2)[C@H](CO)N3)cc1 | activity change (Venus) -46.52%
- Cc1ccc(S(=O)(=O)N(C)C[C@@H]2OCCCC[C@@H](C)Oc3ccc(NS(=O)(=O)c4cccs4)cc3C(=O)N([C@@H](C)CO)C[C@H]2C)cc1 | activity change (Venus) -43.32%
- O=C(Nc1cccc(F)c1)N1CC(=O)N2[C@H](CO)[C@@H](c3ccc(-c4ccccc4)cc3)[C@H]2C1 | activity change (Venus) -32.94%

From PubChem BioAssay record AID1053133 (Broad Institute, 2014).